The supplement of paper PMC6411743
± gives the standard deviation of the averaged measurements. Some of the results follow.

The chains behind the UniProt entries cited, without tags or fusion partners. Where a name states a change or a piece, a line headed by the entry shows the natural chain unless it says otherwise.
UniProt Q8IZ40: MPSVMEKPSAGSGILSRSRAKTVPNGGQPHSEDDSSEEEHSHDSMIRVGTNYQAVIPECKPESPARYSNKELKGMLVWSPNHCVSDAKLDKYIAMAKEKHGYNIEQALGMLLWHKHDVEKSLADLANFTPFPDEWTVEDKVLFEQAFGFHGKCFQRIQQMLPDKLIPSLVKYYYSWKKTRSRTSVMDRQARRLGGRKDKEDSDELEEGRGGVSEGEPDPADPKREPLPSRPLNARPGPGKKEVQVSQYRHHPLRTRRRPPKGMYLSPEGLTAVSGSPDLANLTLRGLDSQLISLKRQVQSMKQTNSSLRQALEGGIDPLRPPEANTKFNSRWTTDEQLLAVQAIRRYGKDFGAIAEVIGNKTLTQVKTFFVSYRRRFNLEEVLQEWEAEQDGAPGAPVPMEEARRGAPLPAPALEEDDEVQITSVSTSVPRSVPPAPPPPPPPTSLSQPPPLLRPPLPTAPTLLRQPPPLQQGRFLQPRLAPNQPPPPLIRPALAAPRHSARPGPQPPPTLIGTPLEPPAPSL
UniProt Q8ND76: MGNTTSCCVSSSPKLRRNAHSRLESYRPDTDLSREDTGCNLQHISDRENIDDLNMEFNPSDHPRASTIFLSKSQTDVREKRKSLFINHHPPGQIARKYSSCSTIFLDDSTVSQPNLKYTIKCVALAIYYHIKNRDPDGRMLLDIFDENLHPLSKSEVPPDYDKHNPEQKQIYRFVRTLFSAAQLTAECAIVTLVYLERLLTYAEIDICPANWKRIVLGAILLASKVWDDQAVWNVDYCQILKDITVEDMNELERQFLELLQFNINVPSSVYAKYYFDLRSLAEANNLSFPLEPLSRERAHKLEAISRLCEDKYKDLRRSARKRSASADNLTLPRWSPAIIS
UniProt Q8N3X1: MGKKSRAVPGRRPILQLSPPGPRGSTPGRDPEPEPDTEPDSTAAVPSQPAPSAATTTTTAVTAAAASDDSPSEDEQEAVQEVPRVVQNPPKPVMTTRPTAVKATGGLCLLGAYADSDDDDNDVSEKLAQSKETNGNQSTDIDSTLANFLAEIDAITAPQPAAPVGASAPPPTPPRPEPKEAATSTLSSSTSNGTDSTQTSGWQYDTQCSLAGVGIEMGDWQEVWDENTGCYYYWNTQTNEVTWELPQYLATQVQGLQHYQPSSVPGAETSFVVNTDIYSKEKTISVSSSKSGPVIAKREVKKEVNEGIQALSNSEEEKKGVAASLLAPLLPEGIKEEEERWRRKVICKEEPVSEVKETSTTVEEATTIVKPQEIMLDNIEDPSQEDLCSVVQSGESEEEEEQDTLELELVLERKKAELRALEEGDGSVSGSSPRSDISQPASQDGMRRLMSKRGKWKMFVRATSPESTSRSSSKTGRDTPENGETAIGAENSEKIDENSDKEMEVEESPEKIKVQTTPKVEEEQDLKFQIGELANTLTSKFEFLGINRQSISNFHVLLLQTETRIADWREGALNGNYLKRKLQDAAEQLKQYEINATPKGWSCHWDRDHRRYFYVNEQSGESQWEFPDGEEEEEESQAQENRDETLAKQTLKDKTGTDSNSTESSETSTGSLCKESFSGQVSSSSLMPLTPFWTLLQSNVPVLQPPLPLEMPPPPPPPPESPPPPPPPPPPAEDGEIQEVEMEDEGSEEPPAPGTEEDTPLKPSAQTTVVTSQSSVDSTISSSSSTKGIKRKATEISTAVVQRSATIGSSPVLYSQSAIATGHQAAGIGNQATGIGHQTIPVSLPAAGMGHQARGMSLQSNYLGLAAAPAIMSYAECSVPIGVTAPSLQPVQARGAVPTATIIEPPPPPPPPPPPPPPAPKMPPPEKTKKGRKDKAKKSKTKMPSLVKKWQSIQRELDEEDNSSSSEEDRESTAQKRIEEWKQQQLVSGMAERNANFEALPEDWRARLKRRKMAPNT
UniProt Q8IZ73: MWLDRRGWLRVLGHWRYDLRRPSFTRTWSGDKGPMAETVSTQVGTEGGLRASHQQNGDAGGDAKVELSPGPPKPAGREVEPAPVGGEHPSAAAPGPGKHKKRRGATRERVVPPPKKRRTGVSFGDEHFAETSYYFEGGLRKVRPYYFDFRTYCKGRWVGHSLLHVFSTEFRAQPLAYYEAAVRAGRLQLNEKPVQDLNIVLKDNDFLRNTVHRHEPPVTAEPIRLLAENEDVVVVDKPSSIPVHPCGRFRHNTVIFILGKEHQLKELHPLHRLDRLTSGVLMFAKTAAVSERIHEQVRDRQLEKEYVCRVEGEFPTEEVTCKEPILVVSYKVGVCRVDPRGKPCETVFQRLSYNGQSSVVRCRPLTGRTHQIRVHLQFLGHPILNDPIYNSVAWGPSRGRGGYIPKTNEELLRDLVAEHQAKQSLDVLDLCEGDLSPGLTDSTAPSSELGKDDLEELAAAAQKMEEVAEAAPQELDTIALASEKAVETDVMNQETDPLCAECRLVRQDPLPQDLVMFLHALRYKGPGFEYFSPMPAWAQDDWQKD
UniProt Q8IXI1, whole entry, looked up: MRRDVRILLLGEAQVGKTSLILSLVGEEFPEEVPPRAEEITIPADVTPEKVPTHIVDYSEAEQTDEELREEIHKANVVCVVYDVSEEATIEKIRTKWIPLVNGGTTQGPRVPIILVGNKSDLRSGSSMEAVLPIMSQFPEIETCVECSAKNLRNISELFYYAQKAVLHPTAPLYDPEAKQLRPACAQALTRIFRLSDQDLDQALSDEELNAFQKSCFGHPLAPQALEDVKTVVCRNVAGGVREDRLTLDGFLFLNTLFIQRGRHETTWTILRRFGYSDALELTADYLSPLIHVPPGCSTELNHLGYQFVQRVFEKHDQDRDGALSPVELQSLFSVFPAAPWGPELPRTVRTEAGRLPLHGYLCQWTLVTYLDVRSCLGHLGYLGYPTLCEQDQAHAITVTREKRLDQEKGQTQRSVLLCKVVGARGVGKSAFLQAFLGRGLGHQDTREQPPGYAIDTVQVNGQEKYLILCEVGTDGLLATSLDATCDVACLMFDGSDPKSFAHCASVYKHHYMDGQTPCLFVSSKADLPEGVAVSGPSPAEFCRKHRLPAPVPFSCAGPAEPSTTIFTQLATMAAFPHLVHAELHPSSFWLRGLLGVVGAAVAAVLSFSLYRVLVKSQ
UniProt Q8NDX1: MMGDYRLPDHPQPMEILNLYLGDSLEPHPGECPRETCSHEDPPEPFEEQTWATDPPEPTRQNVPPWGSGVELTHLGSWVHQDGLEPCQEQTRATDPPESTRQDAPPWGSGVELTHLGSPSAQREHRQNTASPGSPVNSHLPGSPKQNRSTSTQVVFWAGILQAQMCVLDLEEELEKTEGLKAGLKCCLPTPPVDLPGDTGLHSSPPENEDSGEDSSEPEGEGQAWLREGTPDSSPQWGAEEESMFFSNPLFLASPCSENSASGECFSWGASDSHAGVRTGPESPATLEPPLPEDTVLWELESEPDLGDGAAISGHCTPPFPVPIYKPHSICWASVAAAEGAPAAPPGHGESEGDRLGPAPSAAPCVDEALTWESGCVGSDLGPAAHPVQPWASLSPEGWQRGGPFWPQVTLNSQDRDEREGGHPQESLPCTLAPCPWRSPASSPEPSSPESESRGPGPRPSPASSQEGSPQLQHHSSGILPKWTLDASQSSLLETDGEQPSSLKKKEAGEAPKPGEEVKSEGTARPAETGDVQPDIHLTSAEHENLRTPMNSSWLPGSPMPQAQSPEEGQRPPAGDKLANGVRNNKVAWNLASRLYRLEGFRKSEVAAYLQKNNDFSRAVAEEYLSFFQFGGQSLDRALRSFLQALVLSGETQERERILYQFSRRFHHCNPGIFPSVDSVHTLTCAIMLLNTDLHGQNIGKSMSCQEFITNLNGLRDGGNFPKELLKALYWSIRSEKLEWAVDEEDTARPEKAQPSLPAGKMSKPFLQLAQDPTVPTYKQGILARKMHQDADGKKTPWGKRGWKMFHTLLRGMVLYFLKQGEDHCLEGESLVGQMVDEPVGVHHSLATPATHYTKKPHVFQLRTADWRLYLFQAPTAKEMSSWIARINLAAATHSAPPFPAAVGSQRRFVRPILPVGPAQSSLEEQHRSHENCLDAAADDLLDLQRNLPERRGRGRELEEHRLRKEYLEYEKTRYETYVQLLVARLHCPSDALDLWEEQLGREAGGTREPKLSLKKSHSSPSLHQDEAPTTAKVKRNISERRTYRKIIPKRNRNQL
UniProt Q8NB90: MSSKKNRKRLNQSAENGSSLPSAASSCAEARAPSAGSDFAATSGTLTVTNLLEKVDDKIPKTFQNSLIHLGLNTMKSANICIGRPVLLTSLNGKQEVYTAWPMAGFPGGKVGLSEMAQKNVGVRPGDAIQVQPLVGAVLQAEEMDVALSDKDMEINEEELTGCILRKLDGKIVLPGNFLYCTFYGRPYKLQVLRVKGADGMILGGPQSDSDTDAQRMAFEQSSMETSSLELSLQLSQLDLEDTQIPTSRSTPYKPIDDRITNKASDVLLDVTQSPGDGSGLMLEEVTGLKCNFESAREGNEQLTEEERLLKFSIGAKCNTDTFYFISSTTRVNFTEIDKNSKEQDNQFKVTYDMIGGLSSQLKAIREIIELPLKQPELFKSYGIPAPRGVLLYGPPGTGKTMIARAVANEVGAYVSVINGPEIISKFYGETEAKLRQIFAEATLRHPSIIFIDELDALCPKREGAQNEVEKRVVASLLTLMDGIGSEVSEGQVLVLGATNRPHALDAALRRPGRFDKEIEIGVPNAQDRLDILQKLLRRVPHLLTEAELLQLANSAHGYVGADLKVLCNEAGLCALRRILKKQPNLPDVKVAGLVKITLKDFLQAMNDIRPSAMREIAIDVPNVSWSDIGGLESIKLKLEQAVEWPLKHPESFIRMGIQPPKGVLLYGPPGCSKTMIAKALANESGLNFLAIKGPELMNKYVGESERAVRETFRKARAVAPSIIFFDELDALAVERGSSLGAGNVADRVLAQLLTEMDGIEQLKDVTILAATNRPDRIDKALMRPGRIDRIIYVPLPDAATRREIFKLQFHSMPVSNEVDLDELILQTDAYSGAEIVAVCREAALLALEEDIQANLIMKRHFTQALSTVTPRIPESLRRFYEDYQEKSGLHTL
UniProt Q8IU85: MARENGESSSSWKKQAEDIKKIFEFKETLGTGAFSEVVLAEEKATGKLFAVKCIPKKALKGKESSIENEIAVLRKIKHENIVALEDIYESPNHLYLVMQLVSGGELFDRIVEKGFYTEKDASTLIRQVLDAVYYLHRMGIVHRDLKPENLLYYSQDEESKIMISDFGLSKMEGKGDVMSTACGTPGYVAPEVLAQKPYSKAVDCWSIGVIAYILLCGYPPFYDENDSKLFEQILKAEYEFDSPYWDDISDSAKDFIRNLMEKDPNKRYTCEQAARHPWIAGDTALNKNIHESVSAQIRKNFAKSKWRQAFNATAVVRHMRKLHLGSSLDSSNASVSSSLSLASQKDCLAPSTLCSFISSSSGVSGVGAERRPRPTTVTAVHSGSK
UniProt Q8NBS9: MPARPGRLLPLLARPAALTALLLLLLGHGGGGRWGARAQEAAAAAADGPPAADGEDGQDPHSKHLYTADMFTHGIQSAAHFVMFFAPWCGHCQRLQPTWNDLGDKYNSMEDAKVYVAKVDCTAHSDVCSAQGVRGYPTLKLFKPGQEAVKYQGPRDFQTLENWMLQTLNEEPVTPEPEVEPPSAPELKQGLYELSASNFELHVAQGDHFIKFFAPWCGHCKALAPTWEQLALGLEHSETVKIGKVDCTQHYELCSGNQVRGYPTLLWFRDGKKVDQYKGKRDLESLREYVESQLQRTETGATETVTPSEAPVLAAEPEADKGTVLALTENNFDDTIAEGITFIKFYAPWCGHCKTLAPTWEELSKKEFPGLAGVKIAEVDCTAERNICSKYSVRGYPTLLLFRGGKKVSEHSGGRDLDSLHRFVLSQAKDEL
UniProt Q8N5K1: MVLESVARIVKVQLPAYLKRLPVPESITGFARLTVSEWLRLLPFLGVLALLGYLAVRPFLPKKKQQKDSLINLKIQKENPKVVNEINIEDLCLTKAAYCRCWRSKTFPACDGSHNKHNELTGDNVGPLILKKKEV
UniProt Q8TD30: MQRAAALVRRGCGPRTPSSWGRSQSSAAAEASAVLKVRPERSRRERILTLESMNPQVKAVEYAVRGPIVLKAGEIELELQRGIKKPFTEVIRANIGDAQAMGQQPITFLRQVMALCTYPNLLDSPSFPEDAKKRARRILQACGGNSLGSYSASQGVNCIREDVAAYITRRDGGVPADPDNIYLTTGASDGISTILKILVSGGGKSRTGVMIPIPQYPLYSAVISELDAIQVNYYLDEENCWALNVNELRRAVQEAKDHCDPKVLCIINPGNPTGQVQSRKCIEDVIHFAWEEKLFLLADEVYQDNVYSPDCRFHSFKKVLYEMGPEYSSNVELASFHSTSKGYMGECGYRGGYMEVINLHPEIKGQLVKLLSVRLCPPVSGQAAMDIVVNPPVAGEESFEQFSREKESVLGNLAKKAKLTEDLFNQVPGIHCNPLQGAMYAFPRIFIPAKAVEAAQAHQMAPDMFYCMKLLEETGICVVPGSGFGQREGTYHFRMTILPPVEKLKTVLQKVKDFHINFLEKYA

Compound: Nc1nc2c(ncn2[C@@H]2O[C@H](COP(=O)(O)OP(=O)(O)OP(=O)(O)O)[C@@H](O)[C@H]2O)c(=O)[nH]1 [guanosine triphosphate]
Assay: NP40-soluble protein abundance relative to vehicle (solubility fold change) (ratio); higher = more soluble protein in presence of GTP
Method in brief: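 Values are fold changes against the detergent-processed vehicle, based on vsn-normalised intensities. Jurkat crude lysate was treated at eight concentrations from 0.1 to 10 mM (10 min at room temperature, then 3 min at 37 °C), solubilised with 0.8% NP40 and benzonase, ultracentrifuged and analysed by TMT-labelled LC-MS/MS over three independent experiments.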

Target	NP40-soluble protein abundance (concentration: 0.1mM)	NP40-soluble protein abundance (concentration: 0.5mM)	NP40-soluble protein abundance (concentration: 1mM)	NP40-soluble protein abundance (concentration: 2mM)	NP40-soluble protein abundance (concentration: 4mM)	NP40-soluble protein abundance (concentration: 6mM)	NP40-soluble protein abundance (concentration: 8mM)	NP40-soluble protein abundance (concentration: 10mM)
UniProt Q8IZM8	1.08 ± 0.016	1.12 ± 0.044	1.1 ± 0.023	1.08 ± 0.087	0.975 ± 0.028	1.03 ± 0.022	1.11 ± 0.047	1.08 ± 0.036
UniProt Q8NHU6 and related entries	1.09 ± 0.069	1.08 ± 0.062	1.1 ± 0.025	1.11 ± 0.1	1.04 ± 0.047	1.09 ± 0.094	1.09 ± 0.065	1.04 ± 0.038
RCOR2 (UniProt Q8IZ40)	0.9379 ± 0.0074	0.959 ± 0.067	1.03 ± 0.04	1.01 ± 0.037	1.06 ± 0.02	1.04 ± 0.093	1.114 ± 0.01	1.106 ± 0.0057
UniProt Q8TDY2 and related entries	1 ± 0.033	1.01 ± 0.041	1 ± 0.011	1.03 ± 0.033	1.05 ± 0.021	1.05 ± 0.037	1.12 ± 0.085	1.07 ± 0.081
UniProt Q8ND76 and related entries	1.06 ± 0.14	1.108 ± 0.0068	1.14 ± 0.1	1.09 ± 0.034	1.05 ± 0.069	1.06 ± 0.014	1.07 ± 0.16	1.07 ± 0.24
UniProt Q8N3X1 and related entries	1.05 ± 0.043	1.01 ± 0.076	1.09 ± 0.022	1.27 ± 0.017	1.39 ± 0.024	1.64 ± 0.031	1.77 ± 0.15	2.04 ± 0.24
UniProt Q8IYB5-2|Q8IYB5-3	0.939 ± 0.031	0.925 ± 0.047	0.937 ± 0.067	0.864 ± 0.081	0.889 ± 0.079	0.898 ± 0.1	0.911 ± 0.1	0.888 ± 0.095
UniProt Q8NEZ2 and related entries	0.941 ± 0.019	0.886 ± 0.071	0.985 ± 0.028	0.913 ± 0.13	1.07 ± 0.14	0.949 ± 0.088	1.04 ± 0.14	1.03 ± 0.064
RPUSD2 (UniProt Q8IZ73)	1 ± 0.095	1.03 ± 0.088	0.946 ± 0.06	0.965 ± 0.066	0.957 ± 0.036	0.932 ± 0.058	0.905 ± 0.054	0.94 ± 0.027
RHOT2 (UniProt Q8IXI1)	1.02 ± 0.03	1.04 ± 0.041	1 ± 0.047	1 ± 0.076	0.98 ± 0.02	0.988 ± 0.069	0.974 ± 0.039	0.973 ± 0.066
PLBD2 (UniProt Q8NHP8)	0.962 ± 0.013	0.884 ± 0.043	0.973 ± 0.013	0.945 ± 0.032	0.954 ± 0.037	0.921 ± 0.026	0.933 ± 0.067	0.916 ± 0.016
UniProt Q8NDX1 and related entries	1.01 ± 0.07	1.08 ± 0.1	1.13 ± 0.13	1.07 ± 0.093	1.03 ± 0.11	1.08 ± 0.067	1.14 ± 0.042	1.05 ± 0.14
UniProt Q8IZ21 and related entries	1.12 ± 0.16	1.05 ± 0.029	1.03 ± 0.13	1.08 ± 0.15	1.03 ± 0.14	1.04 ± 0.07	1.05 ± 0.088	1.11 ± 0.066
UniProt Q8IWV8 and related entries	1.1 ± 0.14	1.08 ± 0.12	1.06 ± 0.12	1.04 ± 0.11	1.02 ± 0.076	1.04 ± 0.097	1.02 ± 0.11	0.978 ± 0.053
SPATA5 (UniProt Q8NB90)	1.12 ± 0.034	1.18 ± 0.065	1.27 ± 0.075	1.44 ± 0.097	1.62 ± 0.11	1.59 ± 0.098	1.63 ± 0.092	1.62 ± 0.1
UniProt Q8IUF8 and related entries	1.08 ± 0.13	1.12 ± 0.15	1.04 ± 0.11	1.14 ± 0.11	1.13 ± 0.11	1.14 ± 0.12	1.14 ± 0.061	1.08 ± 0.077
PPIL4 (UniProt Q8WUA2)	0.997 ± 0.03	1.03 ± 0.049	0.995 ± 0.029	0.96 ± 0.064	0.971 ± 0.062	0.982 ± 0.059	1.02 ± 0.022	0.977 ± 0.047
UniProt Q8IXI2 and related entries	1.05 ± 0.021	0.969 ± 0.023	0.953 ± 0.072	0.972 ± 0.065	1.03 ± 0.044	0.911 ± 0.075	0.938 ± 0.066	0.928 ± 0.078
UniProt Q8IU85 and related entries	1.08 ± 0.012	1.06 ± 0.09	1.02 ± 0.054	0.989 ± 0.017	0.932 ± 0.036	0.921 ± 0.089	0.897 ± 0.046	0.842 ± 0.026
HOMER1 (UniProt Q86YM7)	1.05 ± 0.24	0.912 ± 0.11	1.05 ± 0.16	0.997 ± 0.052	1.1 ± 0.14	0.945 ± 0.16	1.01 ± 0.22	1.06 ± 0.16
TXNDC5 (UniProt Q8NBS9)	0.938 ± 0.1	0.963 ± 0.096	0.949 ± 0.13	0.924 ± 0.12	0.902 ± 0.12	0.928 ± 0.11	0.922 ± 0.1	0.911 ± 0.078
ALDH16A1 (UniProt Q8IZ83)	1.11 ± 0.033	1.1 ± 0.076	1.13 ± 0.13	1.15 ± 0.12	1.16 ± 0.17	1.15 ± 0.15	1.16 ± 0.16	1.11 ± 0.15
C1orf174 (UniProt Q8IYL3)	0.964 ± 0.048	0.944 ± 0.066	1.16 ± 0.11	1.15 ± 0.11	1.22 ± 0.13	1.25 ± 0.099	1.24 ± 0.13	1.33 ± 0.057
DHX37 (UniProt Q8IY37)	1.056 ± 0.0078	1.15 ± 0.043	1.14 ± 0.063	1.19 ± 0.098	1.28 ± 0.088	1.26 ± 0.13	1.44 ± 0.24	1.48 ± 0.2
NDUFAF2 (UniProt Q8N183)	0.954 ± 0.023	0.833 ± 0.013	1.02 ± 0.056	0.975 ± 0.039	0.911 ± 0.043	0.945 ± 0.075	0.963 ± 0.1	1.02 ± 0.073
CISD2 (UniProt Q8N5K1)	0.944 ± 0.084	0.917 ± 0.059	0.973 ± 0.089	0.955 ± 0.079	0.931 ± 0.097	0.926 ± 0.064	0.879 ± 0.13	0.901 ± 0.08
GPT2 (UniProt Q8TD30)	0.9993 ± 0.007	0.975 ± 0.034	0.958 ± 0.091	0.877 ± 0.076	0.895 ± 0.013	0.9177 ± 0.0053	0.866 ± 0.17	0.848 ± 0.032
DDX51 (UniProt Q8N8A6)	1.07 ± 0.15	1.11 ± 0.05	1.2 ± 0.08	1.35 ± 0.09	1.64 ± 0.085	1.86 ± 0.21	2.05 ± 0.24	2.1 ± 0.15

Single records, from the list above. Values in the order: NP40-soluble protein abundance (concentration: 0.1mM)	NP40-soluble protein abundance (concentration: 0.5mM)	NP40-soluble protein abundance (concentration: 1mM)	NP40-soluble protein abundance (concentration: 2mM)	NP40-soluble protein abundance (concentration: 4mM)	NP40-soluble protein abundance (concentration: 6mM)	NP40-soluble protein abundance (concentration: 8mM)	NP40-soluble protein abundance (concentration: 10mM)
RPUSD2 (UniProt Q8IZ73) as listed: 1 ± 0.095	1.03 ± 0.088	0.946 ± 0.06	0.965 ± 0.066	0.957 ± 0.036	0.932 ± 0.058	0.905 ± 0.054	0.94 ± 0.027
DDX51 (UniProt Q8N8A6) as listed: 1.07 ± 0.15	1.11 ± 0.05	1.2 ± 0.08	1.35 ± 0.09	1.64 ± 0.085	1.86 ± 0.21	2.05 ± 0.24	2.1 ± 0.15
